# Experimental data: patent US8404644
# Results are given in words; binding and its absence hold for the method and conditions named. Some results given as binding are weak or reduced against the parent protein; the word gives no strength.
# T1: bovine βA3 crystallin (bovine) (UniProt P11843)
# T1 sequence (looked up): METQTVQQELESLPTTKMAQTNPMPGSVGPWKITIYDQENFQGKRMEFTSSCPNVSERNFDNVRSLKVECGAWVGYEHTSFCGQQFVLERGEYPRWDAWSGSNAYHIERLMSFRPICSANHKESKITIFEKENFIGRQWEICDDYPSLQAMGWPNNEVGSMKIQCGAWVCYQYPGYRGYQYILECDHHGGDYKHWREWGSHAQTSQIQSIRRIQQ
# B1: bovine βB2 crystallin (protein)
# chain: ASDHQTQAGKPQPLNPKIIIFEQENFQGHSHELNGPCPNLKETGVEKAGSVLVQAGPWVGYEQANCKGEQFVFEKGEYPRWDSWTSSRRTDSLSSLRPIKVDSQEHKITLYENPNFTGKKMEVIDDDVPSFHAHGYQEKVSSVRVQSGTWVGYQYPGYRGLQYLLEKGDYKDSGDFGAPQPQVQSVRRIRDMQWHQRGAFHPSS
# modifications: N-terminus acetylated (as extracted from bovine eye)
# Target: T1, bovine βA3 crystallin (bovine)
# Experiment: gel filtration on Sephacryl 300 HR in distilled water at neutral pH (heterodimer)
binder,measurement,value
B1,binding,binds
